Experimental data as given in patent US20260109748A1.
Results are given in words; binding and its absence hold for the method and conditions named. Some binding calls cover weakened binding; strength is not graded here.

Protein sequences, listed by entry. Tags and fused reporters are not part of them. Lines headed by an entry give the natural chain unless they say otherwise; changes in a name come on top.
UniProt Q8WTT0: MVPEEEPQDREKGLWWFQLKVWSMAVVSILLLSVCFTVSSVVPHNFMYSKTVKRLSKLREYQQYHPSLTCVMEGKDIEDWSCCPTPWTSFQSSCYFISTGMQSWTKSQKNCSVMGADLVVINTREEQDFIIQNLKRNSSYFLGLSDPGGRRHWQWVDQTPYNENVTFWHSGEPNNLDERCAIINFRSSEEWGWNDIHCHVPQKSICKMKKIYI

Target: recombinant His6-tagged extracellular domain of human Clec4C (C-type lectin domain family 4, member C) (human) (UniProt Q8WTT0)
Experiment: ELISA screen of periplasmic extracts

binding: binds
B1: 2CL7 (VHH)
VHH: QVQLQESGGGLVQAGDSLRLSCAPSGFTFDGYAIGWFRQAPGKEREKVACINKSDGLTYYEDSVKGRFTISSDTAKNTIHLQMNSLKPDDTAVYYCAAAWECDYAPADFGSWGQGTQVTVSS
